Tests used:
Saos-2 = assay: Cellular antiproliferation assay (CCK-8), Saos-2; type: cell-based; conditions: Homo sapiens, Saos-2 cells, read-out: Cell growth inhibition IC50 Saos-2
Description: The human osteosarcoma cancer cell lines MG-63, U2-OS, and Saos-2 were purchased from CBSIBCB of the Chinese Academy of Sciences (Shanghai, China)
Cellular antiproliferation assay using cell counting kit (CCK-8)
The CCK-8 assay was used in the current study to analyze the effect of compounds on cellular proliferation. The transfected cells were seeded in a 96-well plate, and to this CCK-8 (20 µl) was added. The enzyme microplate reader at 450 nm was used to record the absorbance. The inhibitory effect on cellular proliferation was obtained as per the given formula: Inhibitory activity (%) = (1 - Atest/Acontrol) × 100 %.

K562 = assay: Cellular antiproliferation assay (CCK-8), K562; type: cell-based; conditions: Homo sapiens, K562 cells, read-out: Cell growth inhibition IC50 K562
KU812 = assay: Cellular antiproliferation assay (CCK-8), KU812; type: cell-based; conditions: Homo sapiens, KU812 cells, read-out: Cell growth inhibition IC50 KU812
PI3K = PI3K luminescent kinase assay (Promega); type: biochemical; conditions: read-out: Kinase inhibition IC50 PI3K
From the text: PI3K and mTOR kinase inhibition assay
The inhibitory activity of developed molecules against PI3K and mTOR was identified using luminescent kinase assay, and Lance Ultra assay from Promega, USA, respectively as per our earlier reported procedure ([38]).

Structure (SMILES): Cc1ccc(NC(=O)c2ccc(CN3CCN(C)CC3)cc2)cc1Nc1nccc(-c2cccnc2)n1 [Imatinib, reference compound]
- IC50 (Saos-2): 332 nM
- IC50 (K562): 410 nM
- IC50 (KU812): 165 nM
- IC50 (PI3K): 312 nM

— publication PMC9148403, “1,3,5-triazines inhibit osteosarcoma and avert lung metastasis in a patient-derived orthotopic xenograft mouse model with favorable pharmacokinetics” (Iranian Journal of Basic Medical Sciences, 2022)
